# In all, about 52,000 sequences went through this assay and about 210 (0.4%) were called active.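 Rule for the calls: active = gene whose silencing raises cell survival under the drug, median off-target-corrected z-score across its silencing RNAs 2 or more; inactive = the rest.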 Some of the results follow.
# Test: Resistance to Poly (ADP-Ribose) Polymerase inhibitor: Gene Identification via Genome-wide siRNA Screen
# Conditions: mouse BRCA2 R2336H ES cells, olaparib, CellTiter-Glo viability; active compounds read high
# Procedure, shortened: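 Genome-wide siRNA screen (3 siRNAs/gene, 20 nM) in mouse ES cells carrying hypomorphic BRCA2 R2336H; olaparib 500 nM added 48 h post-transfection, CellTiter-Glo viability 72 h later. Normalized to plate-median negative control; MAD z-scores, gene median, seed-adjusted.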
row,Sequence,z-score
1,GGAAAGAGUGUGCAAACUCTT against Ly6d,inactive: 0.528
2,GGUAAUAAACAGACAUAGATT against 2410141K09Rik,inactive: 1.09
3,GGUGAAAUAUGAGGAGUUUTT against Calm4,inactive: -0.343
4,GGCUCAUGGUUAUUGUAAUTT against Olfr1198,inactive: -0.412
5,GGAAAUGAUACAUUUGUGATT against Mre11a,inactive: 0.126
6,GGCUUGAAUAUUAAAGUGATT against Arhgef19,inactive: 0.747
7,GGGAAGAUUGAUUUUAUCGTT against Abcb11,inactive: 0.927
8,GGAUGAUGUUCUUAAUGCUTT against Slac2b,inactive: -0.78
9,CCCUAUUGUCAAUAUUCUATT against Nr1h5,inactive: 0.713
10,GCAUGUUUACCUCAAAGUGTT against Cd209e,inactive: -0.323
11,GCACUUCGGAUGGUUCGAGTT against Elovl1,inactive: 1.84
12,GCCUCGACCAGUUUAAUCATT against Loh11cr2a,inactive: 0.135
13,CGCAUUGGUAGCUUGGAUATT against Nmbr,inactive: -1.4
14,GUCUGUAUUCCUAGAUUCCTT against Olfr794,inactive: 0.287
15,CGGAUAACAAAAGUAGCAATT against MGC102419,inactive: 1.82
16,GGAGAGAGGAUAAGUCACATT against 2300003C06Rik,inactive: -0.136
17,GGACGAUAAGCUCUCUCAGTT against Epb4.1l3,inactive: 0.803
18,GGCUCUCAAAACUUGCUGUTT against Wdr50,inactive: 1.12
19,GGUAGUAGAGAUGUUUGAUTT against 2310040C09Rik,inactive: -0.307
20,CCAGUCAAAUAUCCAUUAGTT against Abpg,inactive: -1.08
21,GCUCCUCCUAUAUGUGAAUTT against Cr2,inactive: 0.394
22,GCUAAGGUACAUUUGUAGATT against Cebpd,inactive: 1.37
23,GCAGGCCUAAGCCCAUUGATT against V1rb8,inactive: -2.07
24,GGAUACUCCUCUGAGUAGUTT against BC051083,inactive: 0.0677
25,CCAUAUGGCUUGUGGCAGATT against Scn1b,inactive: 0.809
26,GGUGAUUGCUGAAGACGAGTT against Fbxw8,inactive: -2.05

row,Sequence,z-score
1,GGCACCAUCUACGACUAUGTT against Gpx5,inactive: -1.73
2,GGUGAAUCAGACAUACUAUTT against Rnut1,inactive: -0.0602
3,GGCCAAACAAGACCCAUCUTT against Ppil2,inactive: -0.269
4,GGUGAAACAGAGCAGAAAATT against 0610039J04Rik,inactive: 0.0757
5,GCAGCUCCUAAGAAGAUAATT against Samsn1,inactive: -0.307
6,GCAAGAUUCUUGAAAAGGATT against Gm50,inactive: 1.11
7,GCACAAGGAUUCUCGCUGUTT against Ext1,inactive: 1.07
8,GGUGUUUGACCCUUCUUGCTT against Pqbp1,inactive: 1.11
9,GGUCUUCAUGAAAACCCUCTT against 2610028L19Rik,inactive: -3.09
10,CCUGUUUAUAAGUCAGAGATT against Zzz3,inactive: -0.591
11,CCUUUAACUUUCUCCUACCTT against AY078069,inactive: 0.499
12,CGUGGAAGUAAACUCCCUUTT against Zfp112,inactive: 0.644
13,GGUCCUUACCAUCAAUCCUTT against Pgls,inactive: 2.13
14,AUGUCAGCGGCCCUAGAUGTT against LOC384813,inactive: -1.14
15,GGAAAUGGACAUUGUAUUCTT against Serpina3k,inactive: -0.25
16,GGCCAACACUAACACAGACTT against 6330416G13Rik,inactive: -0.59
17,AGAAGAUACCGAUCAAGCGTT against Ndnl2,inactive: 0.356
18,GAUUCUUGAGGAAUUUAGCTT against Syncrip,inactive: 0.581
19,GCCACGAUUGUUGUCAUGCTT against Rab25,inactive: 0.0821
20,GGAAUGUACCCAUAAAAGUTT against D7Rp2e,inactive: -0.268
21,GGAGAAGAGAAUAGAAGAATT against Ren1,inactive: -1.02
22,GGAGCAUUCACAUACUUACTT against Olfr944,inactive: -0.295
23,GGUUUGUGUCUAAGGAAUUTT against B230308G19Rik,inactive: -0.754
24,CGGAAAGACGAUGCUCAAUTT against Lztr1,inactive: -0.713
25,GGUCCUUAAUGAGCCUGGATT against B230218L05Rik,inactive: 0.00126
26,CCAGGUUGAUGAUUUCAACTT against Tbcc,inactive: -0.243

row,Sequence,z-score
1,GGUUCACAAUGGAUUAUGATT against Lrrc25,inactive: 0.63
2,CGAAAGCACACACGUAGAATT against Erdr1,inactive: 0.349
3,GGAAAUCAGGAGUAAAAGUTT against Prkr,inactive: -1.04
4,GCACACGUUACAAUUACAGTT against Il8rb,inactive: -0.0632
5,CCAUCAAUCAUCAUCGCCUTT against Slc27a2,inactive: 1.3
6,GCGCAAGUCUCCAUUUGCATT against BC021438,inactive: 0.258
7,CUAAAUGCCUCCUACCUUUTT against LOC435285,inactive: -1.46
8,CCCAGUAAAUAAGAGUACATT against Treml1,inactive: -0.647
9,GGGUAGAUAACAUCUGGACTT against Dgat2,inactive: 0.546
10,GGACAUGGUCCUUCCUAAATT against Arl10c,inactive: 0.091
11,CCUAUGAUUCAGUGUAUCUTT against Hdac6,inactive: -0.362
12,GGUCGCUGGAGACCUUAGUTT against 6430706D22Rik,inactive: -0.229
13,GGUUUCUGGCUUUCCGUAGTT against Erf,inactive: -1.44
14,CGACCUGGAUAGGUUGUUUTT against Ckap4,inactive: 1.42
15,GGAGCUAAAAGAGUGCUCCTT against D14Ertd231e,inactive: 0.269
16,GGCCUGAGACUCUCACAGATT against Taf5l,inactive: -1.1
17,CCGGUUUUAUGCAGUGUGUTT against Taar3,inactive: -0.457
18,GGCAUUGUGAAGCUGAAACTT against Ptpn9,active: 1.93
19,GGCUUUUGAGCUGAUCUUGTT against Stmn2,inactive: -0.0751
20,GGGUUUGUAAUAAUGCUUGTT against Cklfsf6,inactive: -0.245
21,GCUUUUAACAUCGAGUAAUTT against Top2b,inactive: -1.35
22,GCAUCUACCUUCUAUUACUTT against Gpsm1,inactive: -0.421
23,GCAUGCUAGAUGUGGUCUGTT against BC018601,inactive: -2.63
24,GGCUCCUCUUUUAUCUACATT against 0610007P14Rik,inactive: -1.2
25,CCGCAGUUGUCUUUCAAGATT against B930007L02Rik,inactive: -0.909
26,GGGCACAAGAUCUAUAUAUTT against Anpep,inactive: 0.593

# Reprinted at random: 4 records from the list
row,Sequence,z-score
14,CGACCUGGAUAGGUUGUUUTT against Ckap4,inactive: 1.42
4,GCACACGUUACAAUUACAGTT against Il8rb,inactive: -0.0632
10,GGACAUGGUCCUUCCUAAATT against Arl10c,inactive: 0.091
20,GGGUUUGUAAUAAUGCUUGTT against Cklfsf6,inactive: -0.245

# Carrying on:

row,Sequence,z-score
1,GCUAUGAAACAUGCCGGAGTT against Mrps21,inactive: 0.368
2,GGCUGAAGAGAUUGUCAAUTT against Aars,inactive: -1.53
3,GGAGUGUUUCUACCAGCCCTT against 4432412D15Rik,inactive: 0.0825
4,GGACUACCGAGGUUUAACCTT against Snx22,inactive: 1.01
5,GCCAUUUUUGAUGGUAUACTT against Atp6v1a1,inactive: -0.938
6,GGUCAUCAUGUCUCAUCAGTT against Olfr983,inactive: 0.865
7,GGGAUUUCACUUCUUAUCATT against Olfr781,inactive: 0.0503
8,GCCACGAACAUGAUGUACATT against Slco3a1,inactive: -1.83
9,GCCCGGUUUGAAGAACAUATT against Ndufb9,inactive: 1.18
10,CCCGAGAUACAAAAUCAUUTT against Dscr1l2,inactive: 1.4
11,CCUCUAUCUAACCUUUUCUTT against 1810037I17Rik,inactive: 0.178
12,CCAUCUCAGGUGCAAUUUGTT against 4921506M07Rik,inactive: 1.79
13,GGACCUCAGAAUUUAUACUTT against Atf5,inactive: 0.81
14,CCAAUCAUUGAAGAUAGAGTT against Olfr811,inactive: -0.224
15,CCGUGGCAACUGGUAUUAUTT against 9830002I17Rik,inactive: 1.38
16,GCACGUGGGCUAUUCCUACTT against Gria1,active: 2.78
17,GGAAGAACAUUGUUACCUGTT against Polydom,inactive: -0.0789
18,GGCCUAUUAUACAGUGUAUTT against Anxa3,inactive: 0.315
19,GGCAGUGACACAGAAAUGATT against D130072O21Rik,inactive: -0.738
20,GGGAGACAAACUGAUCUCUTT against Olfr324,inactive: -0.0366
21,GGAAGUCUGUCCAAAGCAUTT against Olfr190,inactive: -0.308
22,GGGAGAAGAAGAUACACCATT against Usp47,active: 2.16
23,GGAAAAAAUCUGCAUCCGATT against Neu1,inactive: 1.62
24,GGUAUGAUGCCUAUUUAUUTT against Cln8,inactive: 0.667
25,CGACUACCAGAGUCAUUCGTT against Lyzl6,inactive: -0.526
26,CCCAAAACCCUGCUAUUCATT against Synj2bp,inactive: -2.45

# Looked up above.
# z-score, GGGAGACAAACUGAUCUCUTT against Olfr324 reads inactive: -0.0366
# z-score, GCACACGUUACAAUUACAGTT against Il8rb reads inactive: -0.0632
# z-score, GGUGAAUCAGACAUACUAUTT against Rnut1 reads inactive: -0.0602
# z-score, GGCACCAUCUACGACUAUGTT against Gpx5 reads inactive: -1.73

# From PubChem BioAssay AID1347423 (Functional Genomics Laboratory (NCATS/FGL), 2020)
